Results are given in words; binding and its absence hold for the method and conditions named.
Columns and labels:
[1] = biological target: pANITA3.1 ratGIPR (DB388) (rat) (UniProt P43219); test: Western blot, cell lysate
[2] = biological target: pANITA3.1 ratGIPR (DB388) (rat) (UniProt P43219); test: immunoprecipitation, cell lysate

By UniProt entry, the sequences of proteins in these tests, tags left out. Where a name states a change or a piece, a line headed by the entry shows the natural chain unless it says otherwise.
UniProt P43219: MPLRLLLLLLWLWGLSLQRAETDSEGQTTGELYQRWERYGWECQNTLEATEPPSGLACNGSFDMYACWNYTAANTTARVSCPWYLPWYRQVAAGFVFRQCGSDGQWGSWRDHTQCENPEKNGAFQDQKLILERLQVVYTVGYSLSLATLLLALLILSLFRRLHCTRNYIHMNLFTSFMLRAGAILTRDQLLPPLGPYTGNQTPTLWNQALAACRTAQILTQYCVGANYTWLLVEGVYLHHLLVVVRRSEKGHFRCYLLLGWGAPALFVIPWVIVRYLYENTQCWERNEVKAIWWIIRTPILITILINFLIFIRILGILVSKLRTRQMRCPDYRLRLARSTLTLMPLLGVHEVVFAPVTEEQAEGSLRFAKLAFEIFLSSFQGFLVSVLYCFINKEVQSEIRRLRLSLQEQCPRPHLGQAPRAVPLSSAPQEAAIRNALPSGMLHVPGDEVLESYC

- binding [1]: no binding
- binding [2]: no binding
B1: Anti-CB2 clone 1/622 (antibody, IgG3, V domains shown)
VH: EVQLQQSGPELVKPGASVKISCKTSGYTFTEYTMHWVRQSHGKSLEWIGGIDRYNGDTYYNQKFKDKATLTVDRSSSTAYMELRSLTSEDSAVYFCARNGAMDYWGQGISVTVSS
VL: DVVMTQTPLSLPVSLGDQASISCRSSQSLVHSNGNTYLHWFLQKPGQSPKLLIYKVSIRFSGVPDRFSGSGSGTDFTLKISRVEAEDLGVYFCSQSTHVPPLTFGAGTKLELKR

Source: patent US20260029420A1, “ANTI-CB2 ANTIBODIES AND THEIR USE IN A FLOW CYTOMETRY ASSAY TO MEASURE CELL SURFACE CB2 EXPRESSION” (Hoffmann-La Roche Inc., priority 2022, published 2026)
